Results from paper PMC13056571.
These are yes or no findings as the source states them, for the method shown. Binding seen in cells or lysates may run through a third protein. Binding calls can cover weak binding; strength is not graded here.

By UniProt entry, the sequences of proteins in these tests, tags left out. Where a name states a change or a piece, a line headed by the entry shows the natural chain unless it says otherwise.
UniProt Q4GZ37: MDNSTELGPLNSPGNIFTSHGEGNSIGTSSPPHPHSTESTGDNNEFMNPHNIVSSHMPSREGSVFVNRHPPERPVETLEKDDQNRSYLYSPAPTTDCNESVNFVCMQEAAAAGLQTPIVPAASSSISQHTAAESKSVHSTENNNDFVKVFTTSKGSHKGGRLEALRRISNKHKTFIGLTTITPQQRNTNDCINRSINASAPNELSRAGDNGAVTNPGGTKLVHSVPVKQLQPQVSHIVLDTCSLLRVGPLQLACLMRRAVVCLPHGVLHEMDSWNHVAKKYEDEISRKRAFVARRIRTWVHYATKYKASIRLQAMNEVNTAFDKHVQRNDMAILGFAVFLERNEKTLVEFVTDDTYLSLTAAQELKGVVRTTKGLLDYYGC
UniProt Q4FKV6: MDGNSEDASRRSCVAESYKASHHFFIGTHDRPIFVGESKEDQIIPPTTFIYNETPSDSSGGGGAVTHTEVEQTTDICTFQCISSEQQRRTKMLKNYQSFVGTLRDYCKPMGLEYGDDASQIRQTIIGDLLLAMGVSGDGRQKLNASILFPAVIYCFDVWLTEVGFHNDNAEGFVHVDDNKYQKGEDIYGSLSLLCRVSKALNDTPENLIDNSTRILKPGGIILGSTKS

Biological target: GFP-myc-tagged ESB2 (T. brucei) (UniProt Q4GZ37)
Experiment: co-IP; lysate of bloodstream-form T. brucei (20 mM HEPES pH 7.4, 1 mM MgCl2, 10 uM CaCl2, 250 mM sodium citrate, 0.1% Tween-20), sonicated, micrococcal nuclease; GFP-Trap magnetic agarose beads or anti-GFP Dynabeads, 4 C for 2 h; 10 washes in lysis buffer and one in RIPA; anti-HA blot for the prey; single tagged 6HA-ESB3 line as negative control

Q: For 6xHA-tagged ESB3 (from UniProt Q4FKV6), which binding is on record?
A: binds
